Results as given in EP1192182B1, “PITUITARY ADENYLATE CYCLASE ACTIVATING PEPTIDE (PACAP) RECEPTOR 3 (R3) AGONISTS AND THEIR PHARMACOLOGICAL METHODS OF USE” (priority 1999, dated 2001).
For some of these results: At least one peptide structure holds a part that was inferred or is arguable (an end, a ring closure or a residue). For some of these results: At least one structure is not confirmed: it was looked up by name or label, or the drawing left a doubt. Positions of bridges follow the written chain, without caps; N, C: chain ends. Non-standard residues stand in square brackets, D forms with d. Residues, ends and D or L forms follow the SMILES beside them. No end group written: not given here. Nle = CCCC[C@H](N)C(=O)O

Legend:
rat islets = test: Insulin release from isolated rat islets; type: cell-based, Sprague-Dawley rats; conditions: peptide 10nM for 2hrs, 8mM glucose; % of [insulin] in 8mM glucose alone
Experimental: Sprague Dawley rats (275-320 g) were used as the source of donor islets. Briefly, the pancreas was filled with 10 ml of cold reconstituted Liberase RI (Boehringer Manheim), harvested and incubated with additional 5 ml enzyme solution in water bath for 30 minutes. Tissue suspension was washed twice with cold 10% FBS/Hanks buffer (Gibco), resuspended in 8 ml 25% ficoll (Sigma) and then layered with 5 ml each of 23%, 20% and 11 % ficoll. The islets in the 20% layer after centrifugation were removed, washed twice with cold 10% FBS/Hank buffer and resuspended in 10% FBS/RPMI 1640 media (Sigma).
Islet insulin release: Rat islets were isolated from Sprague-Dawley rats as described in example 1 and treated with either vehicle or specified peptide (10nM) for 2hrs. Insulin concentration in the medium was measured with the Linco rat insulin RIA kit. Glucose concentration in the medium was 8mM. The data are expressed as % of [insulin] in 8mM glucose alone. No polypeptide-induced Increases in insulin concentration were observed al 3 mM glucose; thus, the insulin releasing activity of these polypeptides are glucose-dependent. It should be noted that the following Table includes data for polypeptides which are not part of the present invention.

[1] = Peptide-induced elevation of plasma insulin after IVGTT; type: in vivo; conditions: one minute after IVGTT (0.4g/kg glucose), 1 nmole/kg peptide i.v., Wistar rats
Experimental: Wistar rats are fasted overnight (17 hrs) and then anesthetized with pentobarbital (0.1 ml/100 g BW). Glucose (0.4 g/kg dissolved in 1% human albumin-saline) +/- peptide (dissolved in 1% human albumin-saline) is injected intravenously into the tail vein. The rats are eye-bled 1 minute after the injection and 50-100ul of the plasma are assayed for insulin level with the Linco RIA kit (Linco Research, Inc., St. Charles, MO).
(§1) In accordance with the protocol of example 2 above, overnight fasted Wistar rats were anesthetized with pentobarital; i.v. injected with glucose ± peptide and eye bled after 1 minute. N=12 rats/group. […] The peptide or vehicle was given i.v. followed by a glucose load given i.p. in accordance with example 3. The plasma glucose was followed over the time period indicated.
Plasma insulin: Data are expressed as % of plasma insulin one minute after IVGTT (0.4g/kg glucose) with either saline, 0.1nmol/kg P51, P55, P60, P66 or 1 nmole/kg of the other peptides including peptides which are not part of the present invention in Wistar rats. Blood was drawn from the eye and insulin was measured with the rat insulin RIA kit (Linco Research, Inc, St. Charles, MO).

[2] = Intraperitoneal glucose tolerance test (IPGTT), plasma glucose; type: in vivo, Wistar rats
Experimental: Wistar rats are fasted overnight and then anesthetized with pentobarbital. The rats were eye-bled (zero time) and the peptide ( in 1% human albumin) was injected into the tail vein. Five minutes later, 1 g/kg of glucose (in saline) was injected intraperitoneally, and the rats were eye-bled after 15, 30 and 60 minutes. Plasma glucose levels were determined using the Technicon Axon autoanalyzer, Bayer Diagnosics division of Bayer Corporation, Tarrytown NY, operated using Method No. SM4-2143F90 "Glucose".
as §1
Wistar rats were fasted overnight and then anesthetized with Pentobarbital. The rats were eye-bled (zero time) and the peptide (in 1 % human albumin) was injected subcutaneously. Five minutes later, 1 g/kg of glucose (in saline) was injected intraperitoneally, and the rats were eye-bled after 30 minutes.
Plasma glucose: Data are expressed as % of vehicle of plasma glucose area under the curve after IPGTT (1 g/kg glucose) after treatment with 1 nmol/kg dose of the peptide. […] The present Inventors have shown for the first time that this is because the effects of R2 and R3 on glucose tend to cancel each other out. […] Therefore, R3-selectlvlty appears to be a desirable attribute for medicaments which are to be employed in achieving blood glucose reduction, for treatment of type 2 diabetes.

PACAP-R3 = biological target: T1, PACAP-R3 (Homo sapiens, UniProt P41587); test: Cyclic AMP SPA on CHO cells expressing PACAP R3; type: cell-based; set-up: expressed in transfected cells; host or cells: CHO cells; conditions: read-out: R3 EC50; cAMP SPA, CHO cells transfected with PACAP-R3; EC50 = concentration at which 50% of maximum PACAP27 activity is achieved; NA = no detectable activities
T1 sequence (P41587 24-438): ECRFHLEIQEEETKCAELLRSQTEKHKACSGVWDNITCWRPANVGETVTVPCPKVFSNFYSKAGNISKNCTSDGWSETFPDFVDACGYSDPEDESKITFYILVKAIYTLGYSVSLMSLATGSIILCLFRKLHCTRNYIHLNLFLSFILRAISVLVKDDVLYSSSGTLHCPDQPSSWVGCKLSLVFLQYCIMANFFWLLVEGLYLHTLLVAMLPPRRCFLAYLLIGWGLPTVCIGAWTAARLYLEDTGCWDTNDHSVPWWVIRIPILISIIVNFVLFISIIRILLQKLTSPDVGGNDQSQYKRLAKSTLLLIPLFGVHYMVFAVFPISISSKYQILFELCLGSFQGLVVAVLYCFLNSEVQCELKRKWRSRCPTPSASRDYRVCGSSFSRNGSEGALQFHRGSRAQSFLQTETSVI
Experimental: CHO cells expressing the PACAP R3 were plated in 96-well plates (Costar) at 8 x 10^4 cell/well and grown at 37C for 24 hours in a MEM + nucleosides + glutamine (Giobco BRL), 10% FBS, 100 µg/ml Pen/Strep, 0.3 mg/ml glutamine, 1 mM HEPES, 0.5 mg/ml Geneticin (Gibco BRL). The media was removed and the plates were washed with PBS. The cells were incubated with a peptide, in Hepes-PBS-BSA with 0.4mg/mlSoybean Trypsin inhibitor, 0.5 mg/ml Bacitracin, 100uM IBMX, for 15 min at 37 C. Cyclic AMP in the ceii extracts was quantitated using the cAMP SPA direct screening assay system (Amersham Pharmacia Biotech Inc, Piscataway, NJ,). The peptides shown in Table 3 were assayed for cAMP activity.
EC50 is defined as the concentration of the polypeptide at which 50% of maximum PACAP27 activity is achieved. "NA" denotes no detectable activities. "R3 Selectivity" is derived from the ratio of EC50 at R2 versus EC50 at R3. […]

Compound | Islet Insulin Release (% of Basal) (rat islets) | Plasma Insulin (% of Basal) [1] | elevation of plasma glucose 30 minutes after IPGTT ([2]; 1 nmole/kg s.c., vehicle: 160 mg/dl above basal, Figure 7) | disposal of blood glucose ([2]; peptide i.v. followed by glucose load i.p., Figure 5) | Plasma Glucose (% of Basal) i.v. ([2]; plasma glucose area under the curve after IPGTT (1 g/kg glucose), % of vehicle, 1 nmol/kg peptide i.v.) | Plasma Glucose (% of Basal) s.c. ([2]; plasma glucose area under the curve after IPGTT (1 g/kg glucose), % of vehicle, 1 nmol/kg peptide s.c.) | EC50 (PACAP-R3)
HSDAVFTENYTKLRKQLAAKKYLNDLKKGGT [Peptide R3P3] | 275 % of Basal | 361 % of Basal | significantly reduced | markedly accelerated the disposal of blood glucose | 77 % of Basal | 72 % of Basal | 
CCCC[C@H](NC(=O)[C@H](CCC(N)=O)NC(=O)[C@H](CCCCN)NC(=O)[C@H](CCCNC(=N)N)NC(=O)[C@H](CC(C)C)NC(=O)[C@H](CCCCN)NC(=O)[C@@H](NC(=O)[C@H](Cc1ccc(O)cc1)NC(=O)[C@H](CC(N)=O)NC(=O)[C@H](CCC(=O)O)NC(=O)[C@@H](NC(=O)[C@H](Cc1ccccc1)NC(=O)[C@@H](NC(=O)[C@H](C)NC(=O)[C@H](CC(=O)O)NC(=O)[C@H](CO)NC(=O)[C@H](Cc1c[nH]cn1)NC(C)=O)C(C)C)[C@@H](C)O)[C@@H](C)O)C(=O)N[C@@H](C)C(=O)N[C@@H](C)C(=O)N[C@@H](CCCCN)C(=O)N[C@H]1CCCCNC(=O)C[C@@H](C(=O)N[C@@H](CC(C)C)C(=O)N[C@@H](CCCCN)C(=O)N[C@@H](CCCCN)C(=O)NCC(=O)NCC(=O)N[C@H](C(N)=O)[C@@H](C)O)NC(=O)[C@H](CC(N)=O)NC(=O)[C@H](CC(C)C)NC(=O)[C@H](Cc2ccc(O)cc2)NC1=O [Peptide R3P0] (Ac-HSDAVFTENYTKLRKQ[Nle]AAKKYLNDLKKGGT-NH2; lactam 21-25 (inferred)) |  |  |  |  |  |  | 0.4 nM
